This is one part of the list.
Tests used:
Assay in all cases: log2 fold change, soluble protein after heating vs DMSO (PISA); higher = thermal stabilisation; K562 cells, 10 uM, 30 min; active = over 0.2 and 3.5 SD of the protein, either way, in both replicates (recomputed)
saracatinib = compound: CN1CCN(CCOc2cc(OC3CCOCC3)c3c(Nc4c(Cl)ccc5c4OCO5)ncnc3c2)CC1 [saracatinib]
How it was run: (§1)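 K562 cells at 2×10^6 cells/mL were given 10 μM compound for 30 min. Aliquots then went through 3 min of heating across 48°C-58°C, were pooled, and were extracted in PBS with 0.5% NP-40 at 4°C, and the supernatant after 21,000xg for 90 min was quantified by TMTpro 16plex LC-MS/MS with channel sums equalised. Thermal stability relative to control samples, from duplicates, is given as log2 fold change.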

By UniProt entry, the sequences of proteins in these tests, tags left out. Where a name states a change or a piece, a line headed by the entry shows the natural chain unless it says otherwise.
UniProt Q9NR09, whole entry, looked up: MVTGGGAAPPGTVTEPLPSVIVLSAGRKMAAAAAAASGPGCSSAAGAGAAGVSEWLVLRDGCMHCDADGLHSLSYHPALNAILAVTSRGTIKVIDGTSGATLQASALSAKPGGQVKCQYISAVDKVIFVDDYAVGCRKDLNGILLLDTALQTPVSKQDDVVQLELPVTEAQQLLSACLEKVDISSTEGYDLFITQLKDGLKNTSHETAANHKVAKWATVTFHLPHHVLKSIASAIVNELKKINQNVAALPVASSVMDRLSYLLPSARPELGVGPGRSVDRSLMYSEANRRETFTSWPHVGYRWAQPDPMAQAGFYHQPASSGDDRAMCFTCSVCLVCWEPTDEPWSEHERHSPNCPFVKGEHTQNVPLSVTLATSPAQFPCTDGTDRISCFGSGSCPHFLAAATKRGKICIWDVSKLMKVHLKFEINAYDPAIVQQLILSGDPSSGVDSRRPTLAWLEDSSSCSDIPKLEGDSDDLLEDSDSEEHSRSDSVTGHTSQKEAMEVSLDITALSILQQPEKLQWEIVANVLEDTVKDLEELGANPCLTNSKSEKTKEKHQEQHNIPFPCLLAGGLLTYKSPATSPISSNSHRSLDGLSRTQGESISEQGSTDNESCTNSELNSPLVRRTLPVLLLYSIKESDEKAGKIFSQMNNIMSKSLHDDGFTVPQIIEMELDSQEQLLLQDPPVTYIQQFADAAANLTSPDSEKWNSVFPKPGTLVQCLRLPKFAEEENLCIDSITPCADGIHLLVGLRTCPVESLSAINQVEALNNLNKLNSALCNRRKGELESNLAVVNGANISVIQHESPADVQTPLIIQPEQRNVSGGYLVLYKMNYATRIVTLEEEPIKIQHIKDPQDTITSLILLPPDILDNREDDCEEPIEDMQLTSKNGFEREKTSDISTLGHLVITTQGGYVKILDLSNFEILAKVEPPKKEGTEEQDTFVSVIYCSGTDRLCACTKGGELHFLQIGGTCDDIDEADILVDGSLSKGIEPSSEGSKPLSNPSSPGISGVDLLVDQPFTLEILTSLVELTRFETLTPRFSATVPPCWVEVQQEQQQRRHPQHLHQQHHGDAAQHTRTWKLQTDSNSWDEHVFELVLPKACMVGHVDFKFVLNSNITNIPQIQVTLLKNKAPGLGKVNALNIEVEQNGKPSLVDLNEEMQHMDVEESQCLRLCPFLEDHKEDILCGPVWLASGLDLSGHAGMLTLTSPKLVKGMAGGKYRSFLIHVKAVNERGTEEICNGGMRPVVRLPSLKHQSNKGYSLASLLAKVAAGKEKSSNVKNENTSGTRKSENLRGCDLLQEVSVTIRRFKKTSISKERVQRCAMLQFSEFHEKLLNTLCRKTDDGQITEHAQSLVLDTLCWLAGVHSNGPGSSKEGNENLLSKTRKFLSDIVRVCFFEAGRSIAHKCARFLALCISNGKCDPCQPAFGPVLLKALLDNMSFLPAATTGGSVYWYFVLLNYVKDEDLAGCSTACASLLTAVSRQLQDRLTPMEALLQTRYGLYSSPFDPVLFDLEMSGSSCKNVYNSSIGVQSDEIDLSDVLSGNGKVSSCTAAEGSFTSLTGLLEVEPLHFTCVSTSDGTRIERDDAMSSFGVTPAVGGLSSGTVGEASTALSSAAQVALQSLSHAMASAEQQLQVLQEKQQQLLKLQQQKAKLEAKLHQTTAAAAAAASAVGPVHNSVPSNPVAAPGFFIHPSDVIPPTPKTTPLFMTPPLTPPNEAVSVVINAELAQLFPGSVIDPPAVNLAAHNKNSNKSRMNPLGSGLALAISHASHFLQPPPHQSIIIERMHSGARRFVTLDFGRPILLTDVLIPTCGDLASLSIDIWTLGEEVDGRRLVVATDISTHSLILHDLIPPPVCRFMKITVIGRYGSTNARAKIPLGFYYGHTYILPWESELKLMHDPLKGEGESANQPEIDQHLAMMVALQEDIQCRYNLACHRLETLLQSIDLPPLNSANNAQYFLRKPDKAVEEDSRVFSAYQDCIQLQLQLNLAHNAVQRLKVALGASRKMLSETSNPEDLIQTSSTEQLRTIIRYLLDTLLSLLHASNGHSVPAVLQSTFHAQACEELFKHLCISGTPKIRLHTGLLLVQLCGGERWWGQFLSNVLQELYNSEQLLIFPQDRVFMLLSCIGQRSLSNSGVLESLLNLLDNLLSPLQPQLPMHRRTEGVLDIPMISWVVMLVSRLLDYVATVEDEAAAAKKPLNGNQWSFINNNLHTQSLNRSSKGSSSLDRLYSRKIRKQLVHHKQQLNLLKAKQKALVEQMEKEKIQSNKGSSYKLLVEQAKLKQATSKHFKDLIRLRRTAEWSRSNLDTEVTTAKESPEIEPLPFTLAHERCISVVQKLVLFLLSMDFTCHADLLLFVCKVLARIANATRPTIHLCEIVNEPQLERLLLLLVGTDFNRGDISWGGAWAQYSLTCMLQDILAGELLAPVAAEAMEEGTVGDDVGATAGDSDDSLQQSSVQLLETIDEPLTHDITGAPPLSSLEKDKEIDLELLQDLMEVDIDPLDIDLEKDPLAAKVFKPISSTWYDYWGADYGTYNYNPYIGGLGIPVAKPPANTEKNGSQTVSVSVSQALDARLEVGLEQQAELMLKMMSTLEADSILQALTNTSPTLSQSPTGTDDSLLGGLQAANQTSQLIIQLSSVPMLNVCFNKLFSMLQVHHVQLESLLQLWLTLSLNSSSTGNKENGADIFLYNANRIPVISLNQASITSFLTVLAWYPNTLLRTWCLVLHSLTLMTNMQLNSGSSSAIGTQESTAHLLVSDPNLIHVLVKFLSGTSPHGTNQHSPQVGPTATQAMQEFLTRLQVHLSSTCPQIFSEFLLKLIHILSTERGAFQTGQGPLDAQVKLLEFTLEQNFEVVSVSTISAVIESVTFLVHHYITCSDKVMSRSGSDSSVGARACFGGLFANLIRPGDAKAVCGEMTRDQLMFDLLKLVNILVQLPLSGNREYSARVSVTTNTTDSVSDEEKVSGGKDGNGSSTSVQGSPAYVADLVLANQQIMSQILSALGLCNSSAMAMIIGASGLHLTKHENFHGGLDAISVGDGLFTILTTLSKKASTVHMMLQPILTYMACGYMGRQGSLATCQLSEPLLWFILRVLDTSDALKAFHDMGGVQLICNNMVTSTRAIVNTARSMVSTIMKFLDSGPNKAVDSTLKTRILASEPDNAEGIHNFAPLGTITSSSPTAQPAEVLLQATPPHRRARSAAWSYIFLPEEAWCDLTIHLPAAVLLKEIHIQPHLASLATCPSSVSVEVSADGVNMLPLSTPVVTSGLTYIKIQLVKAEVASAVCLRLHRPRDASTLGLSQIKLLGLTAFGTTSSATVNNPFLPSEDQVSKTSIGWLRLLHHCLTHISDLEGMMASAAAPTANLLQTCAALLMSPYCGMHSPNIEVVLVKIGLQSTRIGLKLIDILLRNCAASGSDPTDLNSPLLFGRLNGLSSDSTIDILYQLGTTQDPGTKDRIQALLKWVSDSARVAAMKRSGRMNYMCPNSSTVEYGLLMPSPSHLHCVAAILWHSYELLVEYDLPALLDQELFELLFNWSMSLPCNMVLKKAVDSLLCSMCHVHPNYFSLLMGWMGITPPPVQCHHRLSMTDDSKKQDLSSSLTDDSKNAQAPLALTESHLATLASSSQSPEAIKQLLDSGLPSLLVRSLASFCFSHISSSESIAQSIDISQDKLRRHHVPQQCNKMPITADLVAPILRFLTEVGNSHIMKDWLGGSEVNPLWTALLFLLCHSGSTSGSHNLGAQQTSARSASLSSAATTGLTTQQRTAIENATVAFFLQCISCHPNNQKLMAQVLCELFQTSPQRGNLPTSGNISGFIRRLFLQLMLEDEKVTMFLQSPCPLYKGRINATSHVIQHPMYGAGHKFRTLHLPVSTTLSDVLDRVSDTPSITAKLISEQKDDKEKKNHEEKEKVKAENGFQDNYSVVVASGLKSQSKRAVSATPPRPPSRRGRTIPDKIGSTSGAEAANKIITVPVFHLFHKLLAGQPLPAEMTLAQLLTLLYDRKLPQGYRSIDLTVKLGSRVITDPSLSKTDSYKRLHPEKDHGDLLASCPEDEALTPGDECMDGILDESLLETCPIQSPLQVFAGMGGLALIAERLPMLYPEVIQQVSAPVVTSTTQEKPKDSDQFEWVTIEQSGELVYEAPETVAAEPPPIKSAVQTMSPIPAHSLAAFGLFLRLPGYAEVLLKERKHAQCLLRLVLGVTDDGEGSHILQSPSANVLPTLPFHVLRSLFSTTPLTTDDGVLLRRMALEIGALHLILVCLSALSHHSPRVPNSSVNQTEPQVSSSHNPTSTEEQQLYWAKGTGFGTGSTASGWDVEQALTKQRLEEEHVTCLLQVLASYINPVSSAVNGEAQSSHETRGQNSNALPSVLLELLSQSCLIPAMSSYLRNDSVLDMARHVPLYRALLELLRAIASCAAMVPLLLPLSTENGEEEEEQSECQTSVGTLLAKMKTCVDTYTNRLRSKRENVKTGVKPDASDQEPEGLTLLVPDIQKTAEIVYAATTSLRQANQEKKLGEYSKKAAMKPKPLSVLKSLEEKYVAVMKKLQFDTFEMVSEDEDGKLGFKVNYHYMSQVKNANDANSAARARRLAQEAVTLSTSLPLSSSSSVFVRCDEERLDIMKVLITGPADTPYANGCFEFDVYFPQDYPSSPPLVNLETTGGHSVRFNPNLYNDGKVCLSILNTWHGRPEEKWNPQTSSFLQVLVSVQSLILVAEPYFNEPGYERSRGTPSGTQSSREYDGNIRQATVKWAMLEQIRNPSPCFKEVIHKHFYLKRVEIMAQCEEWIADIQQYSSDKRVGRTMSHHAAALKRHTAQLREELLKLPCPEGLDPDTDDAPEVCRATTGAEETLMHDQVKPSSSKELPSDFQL
UniProt O15392, whole entry, looked up: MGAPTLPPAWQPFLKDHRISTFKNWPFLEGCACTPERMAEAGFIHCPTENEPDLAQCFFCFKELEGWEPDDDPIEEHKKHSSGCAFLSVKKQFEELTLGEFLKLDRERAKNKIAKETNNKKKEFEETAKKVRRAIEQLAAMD
UniProt Q8TDH9: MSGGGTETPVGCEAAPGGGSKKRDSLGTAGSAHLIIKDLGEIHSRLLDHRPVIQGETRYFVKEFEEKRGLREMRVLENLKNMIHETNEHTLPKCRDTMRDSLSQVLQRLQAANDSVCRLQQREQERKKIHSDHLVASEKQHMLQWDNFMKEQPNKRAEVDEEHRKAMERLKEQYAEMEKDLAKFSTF
UniProt Q96GX2: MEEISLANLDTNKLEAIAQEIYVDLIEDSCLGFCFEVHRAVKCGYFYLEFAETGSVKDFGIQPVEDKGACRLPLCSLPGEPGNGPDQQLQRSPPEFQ
UniProt P53004: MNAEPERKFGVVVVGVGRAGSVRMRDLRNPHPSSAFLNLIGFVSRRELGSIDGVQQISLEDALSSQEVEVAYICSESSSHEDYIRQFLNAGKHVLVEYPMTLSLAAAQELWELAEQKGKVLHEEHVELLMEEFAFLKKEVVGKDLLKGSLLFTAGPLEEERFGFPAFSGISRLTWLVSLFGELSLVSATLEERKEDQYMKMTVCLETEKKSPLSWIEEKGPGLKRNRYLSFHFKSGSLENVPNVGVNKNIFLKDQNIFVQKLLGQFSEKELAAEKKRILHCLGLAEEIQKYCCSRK
UniProt O15382: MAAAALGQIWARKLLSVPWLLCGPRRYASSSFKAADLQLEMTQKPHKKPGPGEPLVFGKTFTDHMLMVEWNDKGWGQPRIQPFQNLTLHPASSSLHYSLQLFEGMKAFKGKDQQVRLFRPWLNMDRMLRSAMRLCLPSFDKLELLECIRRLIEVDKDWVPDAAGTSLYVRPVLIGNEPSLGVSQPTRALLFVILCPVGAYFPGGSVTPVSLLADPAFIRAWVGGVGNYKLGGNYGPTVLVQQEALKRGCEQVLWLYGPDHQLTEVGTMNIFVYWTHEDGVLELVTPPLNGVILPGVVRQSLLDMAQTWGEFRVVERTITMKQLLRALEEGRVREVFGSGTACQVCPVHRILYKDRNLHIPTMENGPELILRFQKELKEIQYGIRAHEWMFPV
UniProt Q96GS4: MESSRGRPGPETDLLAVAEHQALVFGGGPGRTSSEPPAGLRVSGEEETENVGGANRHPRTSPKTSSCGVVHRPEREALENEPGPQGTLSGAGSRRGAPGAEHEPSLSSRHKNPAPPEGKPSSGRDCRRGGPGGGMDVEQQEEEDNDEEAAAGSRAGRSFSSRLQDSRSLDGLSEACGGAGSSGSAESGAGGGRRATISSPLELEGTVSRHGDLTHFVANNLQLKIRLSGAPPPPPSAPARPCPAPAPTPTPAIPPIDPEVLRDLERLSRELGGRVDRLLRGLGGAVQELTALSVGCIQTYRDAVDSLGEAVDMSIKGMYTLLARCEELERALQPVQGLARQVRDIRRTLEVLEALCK
UniProt O95999: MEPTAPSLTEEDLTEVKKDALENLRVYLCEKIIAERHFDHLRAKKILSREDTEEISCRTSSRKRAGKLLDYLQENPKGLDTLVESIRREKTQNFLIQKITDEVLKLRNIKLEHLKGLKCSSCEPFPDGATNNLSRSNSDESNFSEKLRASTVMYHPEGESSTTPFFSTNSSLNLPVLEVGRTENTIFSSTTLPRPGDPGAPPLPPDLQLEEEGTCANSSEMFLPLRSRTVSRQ

sotrastaurin = compound: CN1CCN(c2nc(C3=C(c4c[nH]c5ccccc45)C(=O)NC3=O)c3ccccc3n2)CC1 [sotrastaurin]
How it was run: as §1

alvocidib = compound: CN1CC[C@H](c2c(O)cc(O)c3c(=O)cc(-c4ccccc4Cl)oc23)[C@H](O)C1 [alvocidib]
How it was run: as §1

Tubastatin A = compound: CN1CCc2c(c3ccccc3n2Cc2ccc(C(=O)NO)cc2)C1 [Tubastatin A]
How it was run: as §1

[1] = compound: CNC(=O)C1=CC=CC=C1NC2=NC(=NC=C2Cl)NC3=C(C=C(C=C3)N4CCOCC4)OC
How it was run: as §1

defactinib = compound: CNC(=O)c1ccc(Nc2ncc(C(F)(F)F)c(NCc3nccnc3N(C)S(C)(=O)=O)n2)cc1 [defactinib]
How it was run: as §1

rucaparib = compound: CNCc1ccc(-c2[nH]c3cc(F)cc4c3c2CCNC4=O)cc1 [rucaparib]
How it was run: as §1

[2] = compound: CNc1nc(-c2ccc3c(N)n[nH]c3c2)cc(N2C[C@@H](C(=O)NC3CCCCC3)CC[C@H]2C)n1
How it was run: as §1

encorafenib = compound: COC(=O)N[C@@H](C)CNc1nccc(-c2cn(C(C)C)nc2-c2cc(Cl)cc(NS(C)(=O)=O)c2F)n1 [encorafenib]
How it was run: as §1

[3] = compound: COC(=O)[C@H](CCSC)NC(=O)C1=C(C=C(C=C1)NC[C@H](CS)N)C2=CC=CC=C2
How it was run: as §1

Measured: log2 fold change

BIRC6 (UniProt Q9NR09)
inactive: saracatinib -0.015 | sotrastaurin -0.02 | alvocidib -0.014 | Tubastatin A 0.004 | [1] 0.023 | defactinib 0.006 | rucaparib -0.118 | [2] 0.025 | encorafenib 0.095 | [3] -0.007

BCKDHB (UniProt P21953)
inactive: saracatinib 0.073 | sotrastaurin 0.348 | alvocidib 0.049 | Tubastatin A -0.19 | [1] -0.024 | defactinib 0 | rucaparib 0.02 | [2] 0.031 | encorafenib -0.016 | [3] -0.05

BCKDK (UniProt O14874)
inactive: saracatinib 0.083 | sotrastaurin 0.046 | alvocidib 0.088 | Tubastatin A 0.002 | [1] -0.051 | defactinib 0.083 | rucaparib -0.031 | [2] -0.038 | encorafenib 0.048 | [3] 0.074

BLOC1S6 (UniProt Q9UL45)
inactive: saracatinib 0.015 | sotrastaurin 0.02 | alvocidib -0.032 | Tubastatin A -0.04 | [1] 0.073 | defactinib -0.045 | rucaparib 0.018 | [2] 0.005 | encorafenib 0.005 | [3] 0.117

BIRC5 (UniProt O15392)
inactive: saracatinib 0.078 | sotrastaurin 0.017 | alvocidib -0.059 | Tubastatin A 0.018 | [1] 0.02 | defactinib -0.013 | rucaparib -0.097 | [2] -0.144 | encorafenib -0.116 | [3] 0

BOLA3 (UniProt Q53S33)
inactive: saracatinib 0.009 | sotrastaurin 0.077 | alvocidib -0.039 | Tubastatin A -0.021 | [1] 0.003 | defactinib -0.028 | rucaparib -0.044 | [2] -0.051 | encorafenib -0.073 | [3] -0.02

BLOC1S5 (UniProt Q8TDH9)
inactive: saracatinib 0.062 | sotrastaurin 0.052 | alvocidib -0.012 | Tubastatin A 0.059 | [1] -0.041 | defactinib -0.057 | rucaparib -0.002 | [2] -0.037 | encorafenib 0.021 | [3] 0.04

B2M (UniProt P61769)
inactive: saracatinib -0.062 | sotrastaurin -0.06 | alvocidib -0.069 | Tubastatin A 0.152 | [1] 0.054 | defactinib 0.02 | rucaparib -0.007 | [2] -0.022 | encorafenib -0.006 | [3] 0

ATXN7L3B (UniProt Q96GX2)
inactive: saracatinib -0.025 | sotrastaurin 0.028 | alvocidib -0.076 | Tubastatin A 0.071 | [1] -0.008 | defactinib 0.039 | rucaparib 0.019 | [2] -0.012 | encorafenib -0.043 | [3] 0.093

BCL2L1 (UniProt Q07817)
inactive: saracatinib 0.077 | sotrastaurin -0.065 | alvocidib -0.11 | Tubastatin A 0.047 | [1] -0.016 | defactinib -0.039 | rucaparib -0.135 | [2] 0.057 | encorafenib 0.144 | [3] -0.011

AVL9 (UniProt Q8NBF6)
inactive: saracatinib 0.036 | sotrastaurin -0.066 | alvocidib -0.07 | Tubastatin A -0.024 | [1] -0.035 | defactinib -0.042 | rucaparib -0.086 | [2] -0.066 | encorafenib 0.054 | [3] 0.033

BLVRA (UniProt P53004)
inactive: saracatinib -0.02 | sotrastaurin 0.071 | alvocidib -0.064 | Tubastatin A -0.039 | [1] -0.039 | defactinib -0.004 | rucaparib -0.035 | [2] -0.003 | encorafenib 0.003 | [3] 0.006

BCL2L11 (UniProt O43521)
inactive: saracatinib 0.068 | sotrastaurin -0.142 | alvocidib 0.09 | Tubastatin A -0.057 | [1] -0.025 | defactinib -0.013 | rucaparib -0.028 | [2] -0.123 | encorafenib 0.035 | [3] 0.087

BCL9 (UniProt O00512)
inactive: saracatinib 0.043 | sotrastaurin -0.16 | alvocidib 0.014 | Tubastatin A -0.17 | [1] 0.094 | defactinib -0.049 | rucaparib 0.052 | [2] -0.134 | encorafenib -0.024 | [3] 0.001

BCAR1 isoform 6 (UniProt P56945)
inactive: saracatinib 0.099 | sotrastaurin 0.099 | alvocidib 0.016 | Tubastatin A 0.039 | [1] -0.019 | defactinib -0.006 | rucaparib -0.011 | [2] -0.035 | encorafenib -0.028 | [3] -0.02

BRAT1 (UniProt Q6PJG6)
inactive: saracatinib 0.001 | sotrastaurin -0.045 | alvocidib -0.155 | Tubastatin A 0.037 | [1] 0.002 | defactinib -0.065 | rucaparib 0.009 | [2] -0.042 | encorafenib 0.009 | [3] -0.053

BABAM1 (UniProt Q9NWV8)
inactive: saracatinib 0.046 | sotrastaurin 0 | alvocidib 0.015 | Tubastatin A -0.074 | [1] 0.013 | defactinib 0.001 | rucaparib 0.015 | [2] -0.005 | encorafenib 0.019 | [3] 0.03

BSDC1 (UniProt Q9NW68)
inactive: saracatinib 0.031 | sotrastaurin -0.053 | alvocidib -0.029 | Tubastatin A -0.059 | [1] 0.01 | defactinib -0.069 | rucaparib -0.025 | [2] -0.055 | encorafenib 0.006 | [3] 0.019

BAG1 (UniProt Q99933)
inactive: saracatinib 0.051 | sotrastaurin -0.043 | alvocidib 0.005 | Tubastatin A 0.015 | [1] -0.019 | defactinib -0.031 | rucaparib -0.011 | [2] -0.024 | encorafenib 0.043 | [3] 0.06

Random excerpt: 2 records from the list, in no set order.
BCL2L11 (UniProt O43521)
inactive: saracatinib 0.068 | sotrastaurin -0.142 | alvocidib 0.09 | Tubastatin A -0.057 | [1] -0.025 | defactinib -0.013 | rucaparib -0.028 | [2] -0.123 | encorafenib 0.035 | [3] 0.087

BOLA3 (UniProt Q53S33)
inactive: saracatinib 0.009 | sotrastaurin 0.077 | alvocidib -0.039 | Tubastatin A -0.021 | [1] 0.003 | defactinib -0.028 | rucaparib -0.044 | [2] -0.051 | encorafenib -0.073 | [3] -0.02

More entries:

BAHCC1 (UniProt Q9P281)
inactive: saracatinib -0.191 | sotrastaurin 0.1 | alvocidib 0.114 | Tubastatin A -0.034 | [1] -0.021 | defactinib 0.005 | rucaparib -0.261 | [2] -0.168 | encorafenib 0.07 | [3] 0.014

BCAT2 (UniProt O15382)
inactive: saracatinib 0.007 | sotrastaurin 0.027 | alvocidib 0.003 | Tubastatin A -0.012 | [1] 0.012 | defactinib -0.016 | rucaparib -0.012 | [2] -0.068 | encorafenib -0.014 | [3] 0.017

ATXN2L (UniProt Q8WWM7)
inactive: saracatinib 0.003 | sotrastaurin -0.041 | alvocidib -0.007 | Tubastatin A -0.005 | [1] 0.004 | defactinib -0.008 | rucaparib 0.048 | [2] 0.005 | encorafenib -0.001 | [3] 0

ATXN10 (UniProt Q9UBB4)
inactive: saracatinib 0.014 | sotrastaurin 0.022 | alvocidib -0.097 | Tubastatin A -0.006 | [1] -0.024 | defactinib -0.046 | rucaparib -0.021 | [2] -0.01 | encorafenib 0 | [3] 0.005

BORCS6 (UniProt Q96GS4)
inactive: saracatinib 0.067 | sotrastaurin -0.053 | alvocidib -0.097 | Tubastatin A -0.01 | [1] -0.098 | defactinib -0.022 | rucaparib -0.043 | [2] -0.028 | encorafenib -0.017 | [3] -0.018

BACH1 (UniProt O14867)
inactive: saracatinib 0.07 | sotrastaurin -0.02 | alvocidib 0.028 | Tubastatin A -0.098 | [1] -0.035 | defactinib -0.016 | rucaparib -0.025 | [2] -0.035 | encorafenib -0.016 | [3] 0.034

AURKAIP1 (UniProt Q9NWT8)
inactive: saracatinib -0.101 | sotrastaurin 0.002 | alvocidib 0.322 | Tubastatin A 0.217 | [1] -0.025 | defactinib 0.378 | rucaparib 0.282 | [2] 0.099 | encorafenib 0.069 | [3] -0.04

BCL10 (UniProt O95999)
inactive: saracatinib 0.043 | sotrastaurin -0.065 | alvocidib 0.126 | Tubastatin A -0.013 | [1] -0.011 | defactinib -0.164 | rucaparib -0.032 | [2] -0.14 | encorafenib -0.039 | [3] -0.031

— the supplement of paper PMC10849652
